Literature values, collected in patent US11680281B2, “Biosynthetic production of steviol glycosides and processes therefore” (Conagen Inc., priority 2016, dated 2023).
Some entries share one result that the patent states for a list of compounds. For at least one compound, name, drawing or mass did not settle the structure.

Conditions: relative to table sugar (sucrose); cited from earlier work

SMILES | sweetness relative to sucrose (times sweeter than sucrose)
C=C1C[C@@]23CC[C@H]4[C@@](C)(CCC[C@@]4(C)C(=O)O[C@@H]4O[C@H](CO)[C@@H](O)[C@H](O)[C@H]4O)[C@@H]2CC[C@]1(O[C@@H]1O[C@H](CO)[C@@H](O)[C@H](O[C@@H]2O[C@H](CO)[C@@H](O)[C@H](O)[C@H]2O)[C@H]1O[C@@H]1O[C@H](CO)[C@@H](O)[C@H](O)[C@H]1O)C3 [rebaudioside A] | 250-450 times
C=C1C[C@@]23CC[C@H]4[C@@](C)(CCC[C@@]4(C)C(=O)O[C@@H]4O[C@H](CO)[C@@H](O)[C@H](O)[C@H]4O[C@@H]4O[C@H](CO)[C@@H](O)[C@H](O)[C@H]4O)[C@@H]2CC[C@]1(O[C@@H]1O[C@H](CO)[C@@H](O)[C@H](O)[C@H]1O[C@@H]1O[C@H](CO)[C@@H](O)[C@H](O)[C@H]1O)C3 [rebaudioside E] | 250-450 times
